For experiment [1], the target named is TEBP-2::GFP (Telomere-Binding Protein-2, T12E12.3) (C. elegans) (UniProt Q22429). The experiment can be described thus: affinity purification with mass spectrometry; IP of TEBP-2::GFP with GFP-trap magnetic agarose beads from embryo and young adult extracts, quadruplicates, quantitative MS; wash buffer 10 mM Tris/HCl pH 7.5, 150 mM NaCl, 0.5 mM EDTA; 4 °C; also with Sm nuclease.

Experiment [2] concerns the target TEBP-1::3xFLAG (Telomere-Binding Protein-1, R06A4.2) (C. elegans) (UniProt O62329). Put plainly: affinity purification with mass spectrometry; IP of TEBP-1::3xFLAG with anti-FLAG M2 antibody and Protein G magnetic beads from embryo and young adult extracts, quadruplicates, quantitative MS; wash buffer 25 mM Tris/HCl pH 7.5, 300 mM NaCl, 1.5 mM MgCl2, 1 mM DTT; 4 °C; also with Sm nuclease.

Results are given in words; binding and its absence hold for the method and conditions named. Binding seen in cells or lysates may run through a third protein. A yes stands for co-enrichment or nearness to the bait. Other partners may have been found.

With “TEBP-1::3xFLAG (Telomere-Binding Protein-1, R06A4.2) (from UniProt O62329)”, the binding result in experiment [1] is listed as “binds”.
For “TEBP-2::GFP (Telomere-Binding Protein-2, T12E12.3) (from UniProt Q22429)”, the binding entry in experiment [2] was “binds”.
